1 molecule from paper doi:10.1101/2025.03.07.642110 can be followed below.

Chains of the proteins cited; added tags and fusions are not shown.
UniProt Q96P20: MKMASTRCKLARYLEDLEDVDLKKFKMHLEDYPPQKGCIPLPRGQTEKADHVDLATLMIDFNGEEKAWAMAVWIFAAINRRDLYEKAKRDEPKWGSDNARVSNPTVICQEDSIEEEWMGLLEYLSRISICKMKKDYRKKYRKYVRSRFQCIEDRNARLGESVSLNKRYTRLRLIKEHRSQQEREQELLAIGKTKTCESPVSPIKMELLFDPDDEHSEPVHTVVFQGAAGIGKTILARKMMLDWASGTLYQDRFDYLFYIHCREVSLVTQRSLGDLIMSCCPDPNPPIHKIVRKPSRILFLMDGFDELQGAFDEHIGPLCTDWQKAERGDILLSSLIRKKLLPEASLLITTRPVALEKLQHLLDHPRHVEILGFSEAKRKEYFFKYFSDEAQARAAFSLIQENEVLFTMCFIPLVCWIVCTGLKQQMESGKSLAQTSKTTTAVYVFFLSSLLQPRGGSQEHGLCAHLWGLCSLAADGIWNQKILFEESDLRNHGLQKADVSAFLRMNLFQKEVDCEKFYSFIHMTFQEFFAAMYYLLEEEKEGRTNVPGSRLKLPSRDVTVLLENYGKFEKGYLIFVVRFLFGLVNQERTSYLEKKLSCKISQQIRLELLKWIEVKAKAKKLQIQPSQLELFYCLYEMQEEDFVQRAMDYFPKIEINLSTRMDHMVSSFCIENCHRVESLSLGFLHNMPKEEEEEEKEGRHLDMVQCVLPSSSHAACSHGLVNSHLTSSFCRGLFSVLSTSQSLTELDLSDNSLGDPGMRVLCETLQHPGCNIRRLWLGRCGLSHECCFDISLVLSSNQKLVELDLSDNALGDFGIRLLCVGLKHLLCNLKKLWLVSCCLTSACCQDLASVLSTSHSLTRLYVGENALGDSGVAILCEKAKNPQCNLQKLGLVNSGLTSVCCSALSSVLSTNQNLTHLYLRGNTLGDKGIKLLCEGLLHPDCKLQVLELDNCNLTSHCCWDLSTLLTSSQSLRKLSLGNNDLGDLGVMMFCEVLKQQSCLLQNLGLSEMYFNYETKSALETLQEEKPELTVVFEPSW

These are yes or no findings as the source states them, for the method shown. Binding seen in cells or lysates may run through a third protein. Some binding calls cover weakened binding; strength is not graded here.

For this assay, the target named is NLRP3 (human (endogenous in THP-1)) (UniProt Q96P20). As to the kind of experiment: co-IP.

B1: NLRP10 (protein, UniProt Q86W26 1-655)
chain: MAMAKARKPREALLWALSDLEENDFKKLKFYLRDMTLSEGQPPLARGELEGLIPVDLAELLISKYGEKEAVKVVLKGLKVMNLLELVDQLSHICLHDYREVYREHVRCLEEWQEAGVNGRYNQVLLVAKPSSESPESLACPFPEQELESVTVEALFDSGEKPSLAPSLVVLQGSAGTGKTTLARKMVLDWATGTLYPGRFDYVFYVSCKEVVLLLESKLEQLLFWCCGDNQAPVTEILRQPERLLFILDGFDELQRPFEEKLKKRGLSPKESLLHLLIRRHTLPTCSLLITTRPLALRNLEPLLKQARHVHILGFSEEERARYFSSYFTDEKQADRAFDIVQKNDILYKACQVPGICWVVCSWLQGQMERGKVVLETPRNSTDIFMAYVSTFLPPDDDGGCSELSRHRVLRSLCSLAAEGIQHQRFLFEEAELRKHNLDGPRLAAFLSSNDYQLGLAIKKFYSFRHISFQDFFHAMSYLVKEDQSRLGKESRREVQRLLEVKEQEGNDEMTLTMQFLLDISKKDSFSNLELKFCFRISPCLAQDLKHFKEQMESMKHNRTWDLEFSLYEAKIKNLVKGIQMNNVSFKIKHSNEKKSQSQNLFSVKSSLSHGPKEEQKCPSVHGQKEGKDNIAGTQKEASTGKGRGTEETPKNTYI
In the case of B1, the binding entry was “binds”.
